# Laboratory results from PubChem BioAssay AID248 (DTP/NCI, 2004).
# The list shows only some results of the screen, not a fair sample: it gathers some chemical classes. Not every dose and run of a compound is shown. T/C is the treated group as % of the vehicle group. Some doses have a count of surviving animals in place of a T/C: the source files T/C as zero there, which appears to mark a toxic dose or a test without result, not a measured value. Some survivor counts are full or nearly so, which does not show that the dose was tolerated: the source hardly ever lists a survival T/C far under the control, and the zero likely stands for such cases as well. Survivors were counted at the toxicity check, usually on the fifth day, unless a day is given; later deaths do not show. Schedule codes are those of the source, read here as Q, the interval in days (D) or hours (H), X, the number of doses. Some doses were run more than once; the values are given in rising order. Some schedules carry Z or #; the key to these is not given. Where survival is the endpoint, the PubChem record calls one and a half times the control and up active, and a quarter to a half above the control has no call in these data; cut-offs in other NCI protocols can differ. Brackets with × count equal records among those shown. Some T/C values are followed by the survivors on the day toxicity was checked, most often the fifth; where neither a count nor a note follows, no animal had died by that day.
# System: L1210 leukemia ip in BDF1 mice, survival T/C
# Experiment: NCI In Vivo Anticancer Drug Screen. Data for tumor model L1210 Leukemia (intraperitoneal) in B6D2F1 (BDF1) mice
# Details: T/C endpoint: mean survival time, higher T/C = longer survival
# [1] = dose: 2.0 mg/kg/injection, schedule: Q01DX Z (ip), vehicle: carboxymethylcellulose (CMC)
# [2] = dose: 4.0 mg/kg/injection, schedule: Q01DX009 (ip), vehicle: saline
# [3] = dose: 4.0 mg/kg/injection, schedule: Q01DX Z (ip), vehicle: carboxymethylcellulose (CMC)
# [4] = dose: 8.0 mg/kg/injection, schedule: Q01DX009 (ip), vehicle: saline
structure (smiles),measurement,setting,value
Cc1[nH]c(=O)[nH]c(=O)c1N(CCCl)CCCl,T/C,"dose: 0.1 mg/kg/injection, schedule: Q01DX Z (ip), vehicle: carboxymethylcellulose (CMC)",110 % of control
same,T/C,"dose: 0.2 mg/kg/injection, schedule: Q01DX Z (ip), vehicle: carboxymethylcellulose (CMC)",115 % of control
same,T/C,"dose: 0.25 mg/kg/injection, schedule: Q01DX010 (ip), vehicle: saline",103 % of control (2×)
same,T/C,"dose: 0.25 mg/kg/injection, schedule: Q#A X Z (ip), vehicle: saline",102 % of control
same,T/C,"dose: 0.44 mg/kg/injection, schedule: Q01DX Z (ip), vehicle: carboxymethylcellulose (CMC)",118 % of control
same,T/C,"dose: 0.5 mg/kg/injection, schedule: Q01DX001 (ip), vehicle: saline",106 % of control
same,T/C,"dose: 0.5 mg/kg/injection, schedule: Q01DX006 (iv), vehicle: saline",110 % of control
same,T/C,"dose: 0.5 mg/kg/injection, schedule: Q01DX010 (ip), vehicle: saline",106 and 114 % of control [5 of 6 alive]
same,T/C,"dose: 0.5 mg/kg/injection, schedule: Q01DX Z (im), vehicle: saline",112 % of control
same,T/C,"dose: 0.5 mg/kg/injection, schedule: Q01DX Z (ip), vehicle: carboxymethylcellulose (CMC)",113 and 127 % of control
same,T/C,"dose: 0.5 mg/kg/injection, schedule: Q01DX Z (ip), vehicle: saline",122 % of control
same,T/C,"dose: 0.5 mg/kg/injection, schedule: Q01DX Z (sc), vehicle: saline",108 % of control
same,T/C,"dose: 0.5 mg/kg/injection, schedule: Q#A X Z (ip), vehicle: saline",96 % of control
same,T/C,"dose: 0.6 mg/kg/injection, schedule: Q01DX Z (ip), vehicle: carboxymethylcellulose (CMC)",116 % of control
same,T/C,"dose: 0.66 mg/kg/injection, schedule: Q01DX Z (ip), vehicle: carboxymethylcellulose (CMC)",111 % of control
same,T/C,"dose: 0.9 mg/kg/injection, schedule: Q01DX Z (ip), vehicle: carboxymethylcellulose (CMC)",107 % of control
same,T/C,"dose: 1.0 mg/kg/injection, schedule: Q01DX001 (ip), vehicle: saline",107 % of control
same,survivor count,"dose: 1.0 mg/kg/injection, schedule: Q01DX006 (iv), vehicle: saline",1 of 6
same,T/C,"dose: 1.0 mg/kg/injection, schedule: Q01DX009 (ip), vehicle: saline","133, 140, 164 [5 of 6 alive], 167 % of control"
same,T/C,"dose: 1.0 mg/kg/injection, schedule: Q01DX010 (ip), vehicle: saline",126 and 129 % of control
same,T/C,"dose: 1.0 mg/kg/injection, schedule: Q01DX Z (im), vehicle: saline",122 % of control
same,T/C,"dose: 1.0 mg/kg/injection, schedule: Q01DX Z (ip), vehicle: carboxymethylcellulose (CMC)","120, 125, 142 % of control"
same,T/C,"dose: 1.0 mg/kg/injection, schedule: Q01DX Z (ip), vehicle: saline",130 % of control
same,T/C,"dose: 1.0 mg/kg/injection, schedule: Q01DX Z (sc), vehicle: saline",122 % of control
same,T/C,"dose: 1.0 mg/kg/injection, schedule: Q#A X Z (ip), vehicle: saline",94 % of control
same,T/C,"dose: 1.3 mg/kg/injection, schedule: Q01DX Z (ip), vehicle: carboxymethylcellulose (CMC)",130 % of control
same,T/C,"dose: 1.5 mg/kg/injection, schedule: Q03DX006 (ip), vehicle: saline",102 % of control
same,T/C,"dose: 1.6 mg/kg/injection, schedule: Q01DX Z (ip), vehicle: carboxymethylcellulose (CMC)",128 % of control
same,T/C,"dose: 2.0 mg/kg/injection, schedule: Q01DX001 (ip), vehicle: saline",104 % of control
same,T/C,"dose: 2.0 mg/kg/injection, schedule: Q01DX006 (iv), vehicle: saline",116 % of control
same,T/C,"dose: 2.0 mg/kg/injection, schedule: Q01DX009 (ip), vehicle: saline","112, 114, 137 [5 of 6 alive], 151 % of control [5 of 6 alive]"
same,T/C,"dose: 2.0 mg/kg/injection, schedule: Q01DX010 (ip), vehicle: saline","122, 141, 163 % of control"
same,T/C,"dose: 2.0 mg/kg/injection, schedule: Q01DX Z (im), vehicle: saline",154 % of control
same,T/C,[1],"103 [6 of 7 alive], 119, 140 % of control"
same,survivor count,[1],3 of 6
same,T/C,"dose: 2.0 mg/kg/injection, schedule: Q01DX Z (ip), vehicle: saline",170 % of control
same,T/C,"dose: 2.0 mg/kg/injection, schedule: Q01DX Z (oral), vehicle: saline",107 % of control
same,T/C,"dose: 2.0 mg/kg/injection, schedule: Q01DX Z (sc), vehicle: saline",145 % of control
same,T/C,"dose: 2.0 mg/kg/injection, schedule: Q#A X Z (ip), vehicle: saline",94 % of control
same,survivor count,"dose: 3.0 mg/kg/injection, schedule: Q01DX Z (ip), vehicle: carboxymethylcellulose (CMC)",4 of 6
same,T/C,"dose: 3.0 mg/kg/injection, schedule: Q03DX006 (ip), vehicle: saline",113 % of control
same,T/C,"dose: 4.0 mg/kg/injection, schedule: Q01DX001 (ip), vehicle: saline",119 and 135 % of control
same,T/C,"dose: 4.0 mg/kg/injection, schedule: Q01DX006 (iv), vehicle: saline",107 and 116 % of control [5 of 6 alive]
same,T/C,[2],90 (2×) and 100 % of control [4 of 6 alive]
same,survivor count,[2],4 of 6
same,T/C,"dose: 4.0 mg/kg/injection, schedule: Q01DX010 (ip), vehicle: saline",139 % of control
same,survivor count,"dose: 4.0 mg/kg/injection, schedule: Q01DX Z (im), vehicle: saline",1 of 6
same,T/C,[3],100 % of control [5 of 6 alive]
same,survivor count,[3],6 of 6
same,T/C,"dose: 4.0 mg/kg/injection, schedule: Q01DX Z (ip), vehicle: saline",116 % of control
same,T/C,"dose: 4.0 mg/kg/injection, schedule: Q01DX Z (oral), vehicle: saline",107 % of control
same,T/C,"dose: 4.0 mg/kg/injection, schedule: Q01DX Z (sc), vehicle: saline",120 % of control [5 of 6 alive]
same,T/C,"dose: 4.0 mg/kg/injection, schedule: Q07DX003 (ip), vehicle: saline",105 % of control
same,T/C,"dose: 4.0 mg/kg/injection, schedule: Q#A X Z (ip), vehicle: saline",112 % of control
same,survivor count,"dose: 4.5 mg/kg/injection, schedule: Q01DX Z (ip), vehicle: carboxymethylcellulose (CMC)",2 of 6
same,survivor count,"dose: 6.0 mg/kg/injection, schedule: Q01DX Z (ip), vehicle: carboxymethylcellulose (CMC)",3 of 6 and 6 of 6
same,T/C,"dose: 6.0 mg/kg/injection, schedule: Q03DX006 (ip), vehicle: saline",122 % of control [5 of 6 alive]
same,survivor count,"dose: 6.75 mg/kg/injection, schedule: Q01DX Z (ip), vehicle: carboxymethylcellulose (CMC)",5 of 6
same,T/C,"dose: 8.0 mg/kg/injection, schedule: Q01DX001 (ip), vehicle: saline",111 and 143 % of control
same,T/C,"dose: 8.0 mg/kg/injection, schedule: Q01DX006 (iv), vehicle: saline",131 % of control [5 of 6 alive]
same,T/C,[4],97 % of control [4 of 6 alive]
same,survivor count,[4],"1 of 6, 4 of 6, 5 of 6"
same,T/C,"dose: 8.0 mg/kg/injection, schedule: Q01DX010 (ip), vehicle: saline",94 % of control
same,T/C,"dose: 8.0 mg/kg/injection, schedule: Q01DX Z (oral), vehicle: saline",110 % of control
same,T/C,"dose: 8.0 mg/kg/injection, schedule: Q07DX003 (ip), vehicle: saline",113 % of control
same,T/C,"dose: 8.0 mg/kg/injection, schedule: Q#A X Z (ip), vehicle: saline",134 % of control
same,T/C,"dose: 12.0 mg/kg/injection, schedule: Q03DX006 (ip), vehicle: saline",145 % of control
same,T/C,"dose: 16.0 mg/kg/injection, schedule: Q01DX001 (ip), vehicle: saline",108 and 122 % of control
same,T/C,"dose: 16.0 mg/kg/injection, schedule: Q01DX006 (iv), vehicle: saline",145 % of control
same,T/C,"dose: 16.0 mg/kg/injection, schedule: Q01DX Z (oral), vehicle: saline",117 % of control
same,T/C,"dose: 16.0 mg/kg/injection, schedule: Q07DX003 (ip), vehicle: saline",134 % of control
same,T/C,"dose: 16.0 mg/kg/injection, schedule: Q#A X Z (ip), vehicle: saline",150 % of control
same,T/C,"dose: 24.0 mg/kg/injection, schedule: Q03DX006 (ip), vehicle: saline",142 % of control
same,T/C,"dose: 32.0 mg/kg/injection, schedule: Q01DX001 (ip), vehicle: saline",115 and 145 % of control
same,T/C,"dose: 32.0 mg/kg/injection, schedule: Q01DX006 (iv), vehicle: saline",139 % of control
same,T/C,"dose: 32.0 mg/kg/injection, schedule: Q01DX Z (oral), vehicle: saline",129 % of control
same,T/C,"dose: 32.0 mg/kg/injection, schedule: Q07DX003 (ip), vehicle: saline",187 % of control
same,survivor count,"dose: 32.0 mg/kg/injection, schedule: Q#A X Z (ip), vehicle: saline",4 of 6
same,T/C,"dose: 48.0 mg/kg/injection, schedule: Q03DX006 (ip), vehicle: saline",142 % of control
same,T/C,"dose: 64.0 mg/kg/injection, schedule: Q01DX001 (ip), vehicle: saline",98 % of control [4 of 6 alive]
same,T/C,"dose: 64.0 mg/kg/injection, schedule: Q01DX006 (iv), vehicle: saline",98 % of control [5 of 6 alive]
same,survivor count,"dose: 64.0 mg/kg/injection, schedule: Q01DX Z (oral), vehicle: saline",6 of 6
same,T/C,"dose: 64.0 mg/kg/injection, schedule: Q07DX003 (ip), vehicle: saline",146 % of control [5 of 6 alive]
same,survivor count,"dose: 96.0 mg/kg/injection, schedule: Q03DX006 (ip), vehicle: saline",6 of 6
same,T/C,"dose: 128.0 mg/kg/injection, schedule: Q01DX001 (ip), vehicle: saline",91 % of control [4 of 6 alive]
same,survivor count,"dose: 128.0 mg/kg/injection, schedule: Q01DX006 (iv), vehicle: saline",6 of 6
same,survivor count,"dose: 128.0 mg/kg/injection, schedule: Q01DX Z (oral), vehicle: saline",5 of 6
same,survivor count,"dose: 128.0 mg/kg/injection, schedule: Q07DX003 (ip), vehicle: saline",4 of 6
